Laboratory results: patent US20070172957A1, “Methods of identifying anti-inflammatory macrolides” (TAISHO PHARMACEUTICAL CO., LTD., priority 2004, published 2007)

Test system: A549 cells
Experiment: A549 microarray comparing macrolides with arachidonic acid pathway inhibitors, with IL-1β stimulation (Appendix C, Tables 6-9), and correlation analysis
Type: cell-based
Settings: for Correlation coefficient of transcriptional response with FMA response / Correlation coefficient of transcriptional response with Josa response / Correlation coefficient of transcriptional response with Roxi response / Correlation coefficient of transcriptional response with Dexamethasone response / Correlation coefficient of transcriptional response with Indomethacin response / Correlation coefficient of transcriptional response with Triacsin C response / Correlation coefficient of transcriptional response with Clari response: A549 + IL-1β; for Correlation coefficient of transcriptional response with FMA response / Correlation coefficient of transcriptional response with Josa response / Correlation coefficient of transcriptional response with Roxi response / Correlation coefficient of transcriptional response with Dexamethasone response / Correlation coefficient of transcriptional response with Indomethacin response / Correlation coefficient of transcriptional response with Triacsin C response / Correlation coefficient of transcriptional response with IL-1β response / Correlation coefficient of transcriptional response with Clari response: all spots; for Correlation coefficient of transcriptional response with Dexamethasone response / Correlation coefficient of transcriptional response with Indomethacin response / Correlation coefficient of transcriptional response with Triacsin C response / Correlation coefficient of transcriptional response with IL-1β response: cosine vector angle; for Correlation coefficient of transcriptional response with IL-1β response: A549
Excerpt: One inhibitor, triacsin C, acts on AA biosynthesis by inhibiting arachidonyl CoA synthetases, blocking the incorporation of free AA into phospholipids. Triacsin C is reasonably specific for AA compared to other fatty acids. However, triacsin C structurally resembles AA so it also may interfere with other steps in the AA pathway. Indomethacin is an inhibitor of COX1 and COX2 enzyme activities and therefore specifically blocks metabolism of AA into prostaglandins. […] It inhibits transcription of PLA2, and transcriptionally and post-transcriptionally regulates COX1 and COX2 activities. Dexamethasone has additional effects unrelated to AA through binding with the glucocorticoid receptor to glucocortcoid response elements.
A549 cells were pre-incubated overnight (17 hours) with macrolides (10 μM FMA-9045, 50 μM clarithromycin, 50 μM roxithromycin, 50 μM josamycin) and 15 μM triacsin C, and pre-incubated 2 hours with 100 nM indomethacin and 100 nM dexamethasone. All cells then were stimulated for 4 hours with IL-1β, because the activation of PLA2 and downstream signaling events generally requires an inflammatory stimulus. The various treatment conditions are shown below in Table 4. Following macrolide and inhibitor pre-treatment and IL-1 stimulation, the cells were lysed, total RNA was collected, and the poly-A+ mRNA fraction was purified. The resulting microarray data (Appendix C) were analyzed using the methods described in the Examples above.
The tables in Appendix C represent the effects of the arachidonic acid pathway inhibitors (“AA pathway inhibitors”) and the effects of the macrolides (“IL1+macrolide effects”). […] In both tables in Appendix C, the genes that meet this criterion (≧1.3 min fold change) are indicated in bold.
Quantitative analysis was done to determine how well the responses to the different AA pathway inhibitors correlated. The correlation values were assigned a p-value to provide statistical confidence to the correlation value. Correlation between experiments, across all spots showing good detection, was assessed by cosine vector angle to generate the data shown in Tables 7-9. A correlation coefficient close to one indicates strong correlation, whereas a value near zero indicates no correlation. P-values for each correlation coefficient were estimated based on a Fisher permutation test. In this test, each spot's expression ratios were randomly re-ordered across experiments and the degree of correlation between experiments was then reassessed. This was done repeatedly.

[1] = subset of genes differentially expressed in response to clarithromycin

Row | SMILES | Correlation coefficient of transcriptional response with FMA response | Correlation coefficient of transcriptional response with Josa response | Correlation coefficient of transcriptional response with Roxi response | Correlation coefficient of transcriptional response with Dexamethasone response | Correlation coefficient of transcriptional response with Indomethacin response | Correlation coefficient of transcriptional response with Triacsin C response | Correlation coefficient of transcriptional response with IL-1β response | Correlation coefficient with dexamethasone response [1] | Correlation coefficient with indomethacin response [1] | Correlation coefficient with triacsin C response [1] | Correlation coefficient with triacsin C response (subset of genes differentially expressed in response to triacsin C) | Correlation coefficient of transcriptional response with Clari response
1 | CC[C@H]1OC(=O)[C@H](C)[C@@H](O[C@H]2C[C@@](C)(OC)[C@@H](O)[C@H](C)O2)[C@H](C)[C@@H](O[C@@H]2O[C@H](C)C[C@H](N(C)C)[C@H]2O)[C@](C)(OC)C[C@@H](C)C(=O)[C@H](C)[C@@H](O)[C@]1(C)O [clarithromycin] | 0.430 | 0.601 | 0.683 | 0.162 | 0.553 | 0.607 | −0.059 | 0.430 | 0.848 | 0.916 | – | –
2 | COc1ccc2c(c1)c(CC(=O)O)c(C)n2C(=O)c1ccc(Cl)cc1 [indomethacin] | – | – | – | 0.266 | – | 0.485 | −0.195 | – | – | – | 0.621 | –
3 | CO[C@@H]1[C@@H](O[C@@H]2O[C@H](C)[C@@H](O[C@H]3C[C@@](C)(O)[C@@H](OC(=O)CC(C)C)[C@H](C)O3)[C@H](N(C)C)[C@H]2O)[C@@H](CC=O)C[C@@H](C)[C@@H](O)/C=C/C=C/C[C@@H](C)OC(=O)C[C@H]1OC(C)=O [josamycin] | 0.660 | – | 0.721 | – | – | – | 0.060 | – | – | – | – | 0.601
4 | CC[C@H]1OC(=O)[C@H](C)[C@@H](O[C@H]2C[C@@](C)(OC)[C@@H](O)[C@H](C)O2)[C@H](C)[C@@H](O[C@@H]2O[C@H](C)C[C@H](N(C)C)[C@H]2O)[C@](C)(O)C[C@@H](C)/C(=N\OCOCCOC)[C@H](C)[C@@H](O)[C@]1(C)O [roxithromycin] | 0.658 | 0.721 | – | 0.188 | 0.639 | 0.681 | −0.049 | – | – | – | – | 0.683
5 | CCC/C=C/C/C=C/C=C/C=N/NN=O [triacsin C] | – | – | – | 0.196 | 0.485 | – | −0.035 | – | – | – | – | –
